The list shows a part of the results. Single values are uncertain, as repeats are few or missing.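 Imaging used 1,536-well plates; nuclei positive for cleaved PARP by antibody were divided by total DNA-stained nuclei to yield the apoptosis fraction. Doses for screening kept most cells viable, and cell lines differ markedly in resting and induced cleaved-PARP levels.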
Legend:
Experiment in all cases: cleaved PARP positive nuclei fraction relative to DMSO control; melanoma cells; higher = more apoptosis
Conditions in all cases: library dose: low library concentration; 72 h
[1] = test system: WM115
[2] = test system: WM1716
[3] = test system: WM1745
[4] = test system: WM3526
[5] = test system: WM3619
[6] = test system: WM451Lu

Row | Structure (SMILES) | cleaved PARP positive nuclei fraction [1] | cleaved PARP positive nuclei fraction [2] | cleaved PARP positive nuclei fraction [3] | cleaved PARP positive nuclei fraction [4] | cleaved PARP positive nuclei fraction [5] | cleaved PARP positive nuclei fraction [6]
1 | COc1ccc2c(c1)CCC1C2CCC2(C)C(NCCCCCCN3C(=O)C=CC3=O)CCC12 (stereo not given) + O=C(O)C(=O)Nc1sc2c(c1C(=O)O)CCNC2 [TCS401] (first compound 0.4 µM, partner dose 1.66667 µM) | 163% | 183% | 122% | 37.4% | 122% | 65.2%
2 | CN(NC(=O)CC(=O)NN(C)C(=S)c1ccccc1)C(=S)c1ccccc1 + COc1ccc(COc2ccc(Cc3cnc(N)nc3N)cc2OC)cc1 [GW2580] (first compound 0.006 µM, partner dose 1 µM) | 74.5% | 78.2% | 184% | 67.9% | 247% | 115%
3 | COc1cc2ncnc(Nc3ccc(Oc4ccccc4)cc3)c2cc1OC + O=c1cc(-c2cccc3c2Sc2ccccc2S3)oc(N2CCOCC2)c1 [KU55933] (first compound 2 µM, partner dose 1 µM) | 150% | 51.8% | 124% | 211% | 80.6% | 60.4%
4 | c1cc(-c2cnn3cc(-c4ccc(OCCN5CCCCC5)cc4)cnc23)ccn1 [Dorsomorphin] + Cn1cc(/C=C2\C(=O)Nc3cccnc32)c2ccccc21 [GW441756] (first compound 0.4 µM, partner dose 0.4 µM) | 74.1% | 68% | 124% | 63% | 74.1% | 204%
5 | N#Cc1c(O)c2c(-c3ccc(-c4ccccc4O)cc3)csc2[nH]c1=O + COC(=O)c1sccc1S(=O)(=O)Nc1ccc(Nc2ccccc2)cc1OC [GSK0660] (first compound 2 µM, partner dose 1 µM) | 84.6% | 47.7% | 93.4% | 75.1% | 149% | 111%
6 | NCC(=O)Nc1ccc(-n2nc(C(F)(F)F)cc2-c2ccc3c(ccc4ccccc43)c2)cc1 + Cc1cc([N+](=O)[O-])ccc1NS(=O)(=O)c1cc(Cl)ccc1Cl [FH535] (first compound 1 µM, partner dose 1 µM) | 141% | 153% | 214% | 132% | 82.4% | 81.6%
7 | COc1cc2c(Oc3ccc4[nH]c(C)cc4c3F)ncnc2cc1OCCCN1CCCC1 [cediranib] + Oc1cc(-c2nc(-c3ccccc3)[nH]c2-c2ccncc2)ccc1Cl [L779450] (first compound 0.4 µM, partner dose 0.2 µM) | 259% | 75.8% | 137% | 89.8% | 66.1% | 83.5%
8 | O=C(Nc1ccccc1)c1cc([N+](=O)[O-])ccc1Cl + COc1ccc(COc2ccc(Cc3cnc(N)nc3N)cc2OC)cc1 [GW2580] (first compound 2 µM, partner dose 1 µM) | 48.1% | 84.2% | 97.9% | 65.8% | 65.3% | 154%
9 | N#Cc1c(O)c2c(-c3ccc(-c4ccccc4O)cc3)csc2[nH]c1=O + COc1ccc2c(c1)CCC1C2CCC2(C)C(NCCCCCCN3C(=O)C=CC3=O)CCC12 [U73122] (first compound 2 µM, partner dose 0.4 µM) | 138% | 112% | 92% | 57.9% | 90.5% | 252%
10 | CN(C)S(=O)(=O)c1ccc2c(c1)/C(=C/c1cc3c([nH]1)CCCC3)C(=O)N2 + O=C(O)c1ccc(-c2c[nH]c3ncc(-c4ccccc4)cc23)cc1C1CCCC1 [GSK650394] (first compound 0.4 µM, partner dose 0.16 µM) | 136% | 93.7% | 89.5% | 46.5% | 80.9% | 30.9%

— the supplement of paper PMC4604168 (melanoma cell lines)
